Test results as given in PMC10621992.
These are yes or no findings as the source states them, for the method shown. In cells and extracts the contact can be indirect. A yes stands for co-enrichment or nearness to the bait. Other partners may have been found.

Protein sequences, listed by entry. Tags and fused reporters are not part of them.
UniProt P51451: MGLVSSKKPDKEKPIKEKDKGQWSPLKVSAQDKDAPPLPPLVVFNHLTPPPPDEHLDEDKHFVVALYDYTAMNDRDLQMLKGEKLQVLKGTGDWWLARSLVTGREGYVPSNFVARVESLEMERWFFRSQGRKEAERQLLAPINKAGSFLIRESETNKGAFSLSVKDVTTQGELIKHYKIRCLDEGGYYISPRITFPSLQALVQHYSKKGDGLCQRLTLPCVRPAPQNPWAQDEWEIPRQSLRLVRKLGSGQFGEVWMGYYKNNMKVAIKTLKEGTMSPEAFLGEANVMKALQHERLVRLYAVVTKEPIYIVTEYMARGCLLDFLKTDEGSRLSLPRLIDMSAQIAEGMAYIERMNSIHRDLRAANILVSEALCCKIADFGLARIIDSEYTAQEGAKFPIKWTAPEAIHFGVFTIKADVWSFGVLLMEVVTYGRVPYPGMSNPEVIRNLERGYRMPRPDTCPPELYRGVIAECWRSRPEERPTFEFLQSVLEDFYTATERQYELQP
UniProt Q14653: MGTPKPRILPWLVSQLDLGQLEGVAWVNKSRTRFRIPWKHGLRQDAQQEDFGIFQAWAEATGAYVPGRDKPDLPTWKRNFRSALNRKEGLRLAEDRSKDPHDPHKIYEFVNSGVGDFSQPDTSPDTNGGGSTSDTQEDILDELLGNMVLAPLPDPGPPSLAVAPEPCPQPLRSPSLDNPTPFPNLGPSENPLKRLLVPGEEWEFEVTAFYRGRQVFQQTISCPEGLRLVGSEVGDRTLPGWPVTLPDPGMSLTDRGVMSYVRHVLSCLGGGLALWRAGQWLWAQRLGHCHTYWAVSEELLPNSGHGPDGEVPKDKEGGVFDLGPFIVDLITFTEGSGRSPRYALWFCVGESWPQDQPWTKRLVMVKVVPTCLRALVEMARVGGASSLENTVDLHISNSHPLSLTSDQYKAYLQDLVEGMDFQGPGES

Target: GST-BLK (B lymphoid tyrosine kinase), expressed in HEK293 cells (human) (UniProt P51451)
Test: affinity purification with mass spectrom

binding: binds
Substance: IRF3 (interferon regulatory factor 3), endogenous in HEK293 cells (from UniProt Q14653 1-427)
